Laboratory results published in patent publication US20180327375A1, “AROMATIC SURFACTANTS” (REGENTS OF THE UNIVERSITY OF MINNESOTA, priority 2015, published 2018).
Where “and” joins values, the source holds several entries; their conditions need not be identical. Equal values may be shown once. Where a name gives a salt, the structure may show the parent alone.

Assays:
[1] = Draves wetting test (ASTM D2281 skein test); type: physicochemical; details: 0.25 wt % surfactant in water, around Krafft point
[2] = Surfactant foaming by bubbling air through the solution; type: physicochemical; details: 0.5 wt % in water; for Foam Height60 hi-60/hSLS-60: foam height at 60 minutes normalized to SLS; for Foam Growth Rate ri/rSLS: initial growth rate normalized to SLS

Compound | Draves Wetting (wetting time TD) [1] | Foam Height60 hi-60/hSLS-60 [2] | Foam Growth Rate ri/rSLS [2] | Draves Wetting (wetting time TD) ([1]; sulfate)
CCCCCCCCCCCCc1ccc(S(=O)(=O)[O-])o1.[Na+] [OFS-12, Sodium 5-Dodecylfuran-2-Sulfonate] | 48.9 s and 48.9 ± 13.3 s | 2.11 | 1.83 | –
sodium lauryl ether sulfate [SLES, reference compound] | 15.4 s and 15.4 ± 4.0 s | – | – | –
CCCCCCCCCCCCCCc1ccc(S(=O)(=O)[O-])o1.[Na+] [OFS-14, Sodium 5-Tetradecylfuran-2-Sulfonate] | 39.4 s and 39.4 ± 7.0 s | 0.75 | 2.34 | –
CCCCCCCCCCCCOS(=O)(=O)O [SLS, sodium dodecyl sulfate, reference compound] | – | 1.00 | 1.00 | 6.3 s and 6.3 ± 2.7 s
CCCCCCCc1ccc(S(=O)(=O)[O-])o1.[Na+] [OFS-7, Sodium 5-Heptylfuran-2-Sulfonate] | > 3600 s | 0.12 | 1.04 | –
